This is an account of results in paper PMC6081406 (Nature Communications, 2018).

Experiment [1] concerns the target T1, pHluorin-tagged full-length GABAAR α2 subunit (UniProt P26048).
T1 sequence: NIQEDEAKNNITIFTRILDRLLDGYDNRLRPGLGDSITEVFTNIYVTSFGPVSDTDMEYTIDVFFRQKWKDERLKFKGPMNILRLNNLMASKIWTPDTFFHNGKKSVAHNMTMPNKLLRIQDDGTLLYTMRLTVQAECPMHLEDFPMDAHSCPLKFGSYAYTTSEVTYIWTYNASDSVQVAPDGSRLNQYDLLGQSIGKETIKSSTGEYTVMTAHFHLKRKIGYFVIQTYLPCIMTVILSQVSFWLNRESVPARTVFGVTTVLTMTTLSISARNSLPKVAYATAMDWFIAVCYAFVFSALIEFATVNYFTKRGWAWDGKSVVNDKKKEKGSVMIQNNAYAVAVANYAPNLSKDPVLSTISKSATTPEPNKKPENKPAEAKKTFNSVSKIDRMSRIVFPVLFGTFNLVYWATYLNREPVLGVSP
Kind of experiment: co-IP; GFP bead trap from lysates of HEK293T cells transfected with full-length CB and pHluorin-tagged α2 or α2–1; 20 mM Tris-HCl pH 8, 150 mM NaCl, 1% triton, overnight at 4 °C; western blot. A general note: A western blot detects proteins with antibodies after separation by electrophoresis.

Experiment [2] concerns the target GABAAR α2 subunit large cytoplasmic loop (AA 335-419) (UniProt P23576). Kind of experiment: ITC; α2L in the presence of GephE titrated with the SH3 domain; both purified. On the technique in general: In ITC the heat of successive injections is recorded.
Experiment [3] shares this target. The experiment in a line: native gel or EMSA; native agarose gel electrophoresis (NAGE), Coomassie staining; CB-SH3 alone or mixed with a threefold excess of GABAAR intracellular domains; both purified.
For experiment [4] the target is unchanged. The experiment in a line: SEC; analytical size exclusion chromatography; single proteins or equimolar mixtures of the SH3 domain with α1L, α2L or α3L; fractions analysed by SDS-PAGE; both purified. In general terms: In gel filtration, larger molecules generally elute earlier.

These are yes or no findings as the source states them, for the method shown. For some of these results: In cells and extracts the contact can be indirect. Some results given as binding are weak or reduced against the parent protein; the word gives no strength. For some of these results: Tags and fused reporters may be left off the sequences shown.

B1: full-length collybistin (CB) (protein, UniProt Q3UTH8 1-516)
chain: MYDLITGDSIVSAEAVWDHVTMANRELAFKAGDVIKVLDASNKDWWWGQIDDEEGWFPASFVRLWVNQEDGVEEGPSDVQNGHLDPNSDCLCLGRPLQNRDQMRANVINEIMSTERHYIKHLKDICEGYLKQCRKRRDMFSDEQLKVIFGNIEDIYRFQMGFVRDLEKQYNNDDPHLSEIGPCFLEHQDGFWIYSEYCNNHLDACMELSKLMKDSRYQHFFEACRLLQQMIDIAIDGFLLTPVQKICKYPLQLAELLKYTAQDHSDYRYVAAALAVMRNVTQQINERKRRLENIDKIAQWQASVLDWEGEDILDRSSELIYTGEMAWIYQPYGRNQQRVFFLFDHQMVLCKKDLIRRDILYYKGRIDMDKYEVIDIEDGRDDDFNVSMKNAFKLHNKETEEVHLFFAKKLEEKIRWLRAFREERKMVQEDEKIGFEISENQKRQAAMTVRKASKQKGVNSARSVPPSYPPPQDPLNQGQYLVPDGIAQSQVFEFTEPKRSQSPFWQNFSRLTPFKK
Take B1: the binding result in experiment [1] is “binds”.

B2: SH3 domain of collybistin (CB-SH3) (domain or fragment, murine, UniProt Q3UTH8 4-72, looked up)
chain: LITGDSIVSAEAVWDHVTMANRELAFKAGDVIKVLDASNKDWWWGQIDDEEGWFPASFVRLWVNQEDGV
notes: collybistin CB1, murine, residues 4-72, encompassing the complete SH3 domain (residues 8-67); pGEX construct provided by T. Soykan (Brose lab); source: E. coli, purified (GST tag, in-situ thrombin cleavage, Superdex 200 SEC); not shown: GST, N-terminal, cleaved
B2: the binding result in experiment [2], in experiment [3] and in experiment [4] was “binds” throughout.
